PubChem BioAssay AID1259425 | University of Nebraska Medical Center | 2018
Aim: 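Compare each knockdown with KSR1 silencing using changes in marker transcripts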 (primary screen). Cells: HCT116 human colon cancer cells. Reagents: siRNA pool against human genes, 50 nM siRNA. Read-out: 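mRNA of six signature genes measured together by branched-DNA assay after 50 nM siRNA pool, blank removed, divided by geometric mean of two housekeeping genes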. Scale: BNIP3L mRNA: higher = more BNIP3L transcript after knockdown; NDRG1 mRNA: higher = more NDRG1 transcript after knockdown.
The whole screen tested about 14,000 reagents; this is an unselected part. Reagents against one gene are numbered here. Further read-outs or replicates are left out here. Not stated in the record: the time to read-out.

Target gene	reagent no.	BNIP3L mRNA, set 1	NDRG1 mRNA, set 1
NRTN (neurturin)	1	0.0734	0.211
CTSS (cathepsin S)	1	0.131	0.14
FNDC1 (fibronectin type III domain containing 1)	1	0.123	0.144
CHIC2 (cysteine rich hydrophobic domain 2)	1	0.121	0.179
KLHL12 (kelch like family member 12)	1	0.0847	0.0856
RPL19 (ribosomal protein L19)	1	0.334	0.499
THAP4 (THAP domain containing 4)	1	0.085	0.0956
GPHRB (golgi pH regulator B)	1	0.158	0.222
MAP3K2 (mitogen-activated protein kinase kinase kinase 2)	1	0.0661	0.155
NPHP1 (nephrocystin 1)	1	0.141	0.281
PDE6H (phosphodiesterase 6H)	1	0.0969	0.441
INE1 (inactivation escape 1)	1	0.108	0.184
CNTNAP1 (contactin associated protein 1)	1	0.107	0.173
GALC (galactosylceramidase)	1	0.154	0.0667
KIAA1549L (KIAA1549 like)	1	0.0927	0.0599
THSD4 (thrombospondin type 1 domain containing 4)	1	0.204	0.253
DPYSL3 (dihydropyrimidinase like 3)	1	0.0771	0.229
MKI67 (marker of proliferation Ki-67)	1	0.111	0.0204
P4HTM (prolyl 4-hydroxylase, transmembrane)	1	0.0748	0.232
ANKRD10 (ankyrin repeat domain 10)	1	0.146	0.482
SLC24A1	1	0.087	0.0809
FCHO1 (FCH and mu domain containing endocytic adaptor 1)	1	0.0932	0.0743
SPRING1 (SREBF pathway regulator in golgi 1)	1	0.211	0.205
TRAPPC12 (trafficking protein particle complex subunit 12)	1	0.254	0.525
IL6ST (interleukin 6 cytokine family signal transducer)	1	0.0746	0.0811
NXPH3 (neurexophilin 3)	1	0.0766	0.52
DDHD2 (DDHD domain containing 2)	1	0.122	0.284
ITGBL1 (integrin subunit beta like 1)	1	0.0893	0.0949
ZMYM3 (zinc finger MYM-type containing 3)	1	0.111	0.215
DSTYK (dual serine/threonine and tyrosine protein kinase)	1	0.0531	0.0696
GANC (glucosidase alpha, neutral C)	1	0.119	0.0664
MDGA1 (MAM domain containing glycosylphosphatidylinositol anchor 1)	1	0.179	0.143
FLYWCH1 (FLYWCH-type zinc finger 1)	1	0.254	0.244
EGR4 (early growth response 4)	1	0.112	0.0948
XPO5 (exportin 5)	1	0.152	0.15
WNT9B (Wnt family member 9B)	1	0.0751	0.135
ADAM3B (ADAM metallopeptidase domain 3B (pseudogene))	1	0.177	0.176
MTTP (microsomal triglyceride transfer protein)	1	0.114	0.0961
A1CF (APOBEC1 complementation factor)	1	0.0899	0.108
DDX39A (DExD-box helicase 39A)	1	0.0621	0.192
L3MBTL3 (L3MBTL histone methyl-lysine binding protein 3)	1	0.118	0.154
ZKSCAN3 (zinc finger with KRAB and SCAN domains 3)	1	0.184	0.209
ERMP1 (endoplasmic reticulum metallopeptidase 1)	1	0.137	0.174
TMSB4Y (thymosin beta 4 Y-linked)	1	0.0651	0.158
AP4B1 (adaptor related protein complex 4 subunit beta 1)	1	0.173	0.112
FAAP100 (FA core complex associated protein 100)	1	0.199	0.172
CLP1 (cleavage factor polyribonucleotide kinase subunit 1)	1	0.175	0.261
MCF2 (MCF.2 cell line derived transforming sequence)	1	0.0487	0.179
ESYT1 (extended synaptotagmin 1)	1	0.158	0.8
ALDH3A2 (aldehyde dehydrogenase 3 family member A2)	1	0.116	0.0965
SLCO3A1	1	0.12	0.183
ZNHIT2 (zinc finger HIT-type containing 2)	1	0.104	0.211
EIF3D (eukaryotic translation initiation factor 3 subunit D)	1	0.0362	0.0493
FBXO2 (F-box protein 2)	1	0.0483	0.247
GPNMB (glycoprotein nmb)	1	0.104	0.572
IP6K3 (inositol hexakisphosphate kinase 3)	1	0.154	0.398
PYCR1 (pyrroline-5-carboxylate reductase 1)	1	0.141	0.207
ZYX (zyxin)	1	0.107	0.237
RASGRP1 (RAS guanyl releasing protein 1)	1	0.0731	0.129
KRT81 (keratin 81)	1	0.0713	0.089
IMPG1 (interphotoreceptor matrix proteoglycan 1)	1	0.12	0.365
ADAMTSL4 (ADAMTS like 4)	1	0.158	0.323
ADAMTSL4 (ADAMTS like 4)	2	0.14	0.275

Copied from the list:
MAP3K2 (mitogen-activated protein kinase kinase kinase 2), NDRG1 mRNA, set 1 = 0.155
Under “BNIP3L mRNA, set 1”, P4HTM (prolyl 4-hydroxylase, transmembrane) reads 0.0748
A1CF (APOBEC1 complementation factor), BNIP3L mRNA, set 1: 0.0899
Entry for XPO5 (exportin 5) under “NDRG1 mRNA, set 1”: 0.15
